Results are given in words; binding and its absence hold for the method and conditions named. Binding seen in cells or lysates may run through a third protein. For some of these results: Binding calls can cover weak binding; strength is not graded here. Where a sequence is shown, tags or fusion partners need not be part of it.
Tests used:
Assay in all cases: co-IP; GFP-Trap agarose on 20 mg total protein extract of 14- to 15-day-old Arabidopsis seedlings co-expressing the two tagged proteins; 2 h at 4°C; washed with 50 mM Tris-HCl pH 7.5, 300 mM NaCl; western blot with anti-RFP, anti-HA and anti-GFP antibodies
[1] = biological target: T1, CDKD;1:GFP (CYCLIN-… KINASE D;1 with C-terminal GFP) (Arabidopsis thaliana) (UniProt Q9C9U2)
T1 sequence: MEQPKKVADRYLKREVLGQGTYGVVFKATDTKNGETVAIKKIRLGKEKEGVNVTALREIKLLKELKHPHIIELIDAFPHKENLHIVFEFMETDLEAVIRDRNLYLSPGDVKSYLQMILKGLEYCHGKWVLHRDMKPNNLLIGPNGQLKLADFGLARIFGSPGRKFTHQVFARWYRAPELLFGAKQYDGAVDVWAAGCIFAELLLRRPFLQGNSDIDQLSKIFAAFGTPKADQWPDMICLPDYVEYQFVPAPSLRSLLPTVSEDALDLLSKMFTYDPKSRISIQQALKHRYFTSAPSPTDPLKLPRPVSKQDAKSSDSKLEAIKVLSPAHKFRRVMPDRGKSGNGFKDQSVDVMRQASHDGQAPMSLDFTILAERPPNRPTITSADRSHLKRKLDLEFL

Amino acid sequences for entries named in this document (tags omitted). A change or cut given only in a name is not applied to a line headed by its entry.
UniProt Q8W5S1: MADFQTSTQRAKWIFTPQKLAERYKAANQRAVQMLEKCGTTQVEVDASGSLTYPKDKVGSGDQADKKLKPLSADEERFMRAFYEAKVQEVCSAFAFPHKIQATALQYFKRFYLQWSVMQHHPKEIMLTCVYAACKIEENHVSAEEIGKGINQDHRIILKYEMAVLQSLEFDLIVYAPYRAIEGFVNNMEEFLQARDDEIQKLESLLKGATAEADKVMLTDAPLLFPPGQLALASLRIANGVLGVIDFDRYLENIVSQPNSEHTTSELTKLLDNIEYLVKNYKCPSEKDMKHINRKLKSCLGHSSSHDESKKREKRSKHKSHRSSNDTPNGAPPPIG

[2] = biological target: T2, CDKD;2:GFP–PIPL (CYCLIN-… KINASE D;2 with C-terminal GFP and PIPL tag) (Arabidopsis thaliana) (UniProt Q9C9M7)
T2 sequence: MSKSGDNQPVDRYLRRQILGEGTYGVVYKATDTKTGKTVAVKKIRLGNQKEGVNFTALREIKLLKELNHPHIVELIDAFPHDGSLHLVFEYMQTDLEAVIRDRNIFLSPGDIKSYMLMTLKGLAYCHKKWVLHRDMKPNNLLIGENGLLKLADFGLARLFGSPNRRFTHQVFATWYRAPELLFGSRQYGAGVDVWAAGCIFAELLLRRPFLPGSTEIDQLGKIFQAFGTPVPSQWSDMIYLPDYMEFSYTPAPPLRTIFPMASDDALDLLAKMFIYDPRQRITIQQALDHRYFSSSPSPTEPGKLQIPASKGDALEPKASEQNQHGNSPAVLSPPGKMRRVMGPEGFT

[3] = biological target: T3, CDKD;3:GFP (CYCLIN-… KINASE D;3 with C-terminal GFP) (Arabidopsis thaliana) (UniProt Q9LMT0)
T3 sequence: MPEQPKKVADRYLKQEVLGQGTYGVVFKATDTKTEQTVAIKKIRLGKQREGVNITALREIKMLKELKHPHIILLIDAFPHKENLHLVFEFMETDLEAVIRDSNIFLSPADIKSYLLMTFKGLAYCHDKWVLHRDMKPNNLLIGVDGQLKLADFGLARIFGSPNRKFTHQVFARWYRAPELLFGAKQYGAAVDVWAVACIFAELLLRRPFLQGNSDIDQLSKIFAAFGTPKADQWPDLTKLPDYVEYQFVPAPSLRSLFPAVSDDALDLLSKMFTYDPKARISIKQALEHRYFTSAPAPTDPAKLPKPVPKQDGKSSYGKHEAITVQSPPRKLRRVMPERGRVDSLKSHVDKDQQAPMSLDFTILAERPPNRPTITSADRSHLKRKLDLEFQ

[4] = biological target: T4, CDKF;1:GFP–PIPL (CDKD-activating kinase CDKF;1 with C-terminal GFP and PIPL tag) (Arabidopsis thaliana) (UniProt O80345)
T4 sequence: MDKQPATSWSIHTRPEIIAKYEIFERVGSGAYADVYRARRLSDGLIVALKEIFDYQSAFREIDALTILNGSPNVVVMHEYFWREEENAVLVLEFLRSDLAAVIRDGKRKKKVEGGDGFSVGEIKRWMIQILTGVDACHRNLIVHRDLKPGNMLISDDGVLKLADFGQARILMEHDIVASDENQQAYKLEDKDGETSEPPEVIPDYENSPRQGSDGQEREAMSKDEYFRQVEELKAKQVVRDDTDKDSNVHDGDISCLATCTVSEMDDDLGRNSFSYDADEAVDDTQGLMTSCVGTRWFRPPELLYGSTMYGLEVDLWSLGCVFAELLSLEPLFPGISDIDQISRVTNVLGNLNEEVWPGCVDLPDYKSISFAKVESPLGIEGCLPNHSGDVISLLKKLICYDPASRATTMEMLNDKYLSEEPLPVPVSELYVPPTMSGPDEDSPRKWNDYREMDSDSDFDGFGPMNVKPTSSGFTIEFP

- binding [1]: binds
- binding [2]: binds
- binding [3]: binds
- binding [4]: no binding
Substance: CYCH:mCherry (CYCLIN H with C-terminal mCherry) (from UniProt Q8W5S1)

Source: paper PMC6852550
